In article PMC6309994 one finds binding data, which are given here for two molecules.

Positions count from the first letter of the chain named. Results are given in words; binding and its absence hold for the method and conditions named. Some entries that bind do so weakly or less than the wild type.

Experiment [1] deals with T1, mouse RNase H2 subunit B (Rnaseh2b) (mouse) (UniProt Q80ZV0).
T1 sequence: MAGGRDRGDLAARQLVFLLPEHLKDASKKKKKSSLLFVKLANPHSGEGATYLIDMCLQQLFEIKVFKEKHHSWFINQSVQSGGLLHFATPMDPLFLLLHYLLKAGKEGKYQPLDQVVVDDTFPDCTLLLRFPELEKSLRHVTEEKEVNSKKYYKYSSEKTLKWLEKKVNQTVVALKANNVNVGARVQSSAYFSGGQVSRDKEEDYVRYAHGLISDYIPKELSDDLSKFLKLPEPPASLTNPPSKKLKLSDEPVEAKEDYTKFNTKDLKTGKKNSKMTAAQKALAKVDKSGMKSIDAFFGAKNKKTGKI
The experiment can be described thus: SEC; co-expressed His-tagged subunits, purified; Hiload 16/60 Superdex 75pg column in 20 mM Tris-HCl (pH 7.5), 1 mM EDTA, 150 mM NaCl; fractions checked by SDS-PAGE; both purified. (In general: Size exclusion chromatography separates by hydrodynamic size, large species first.)

In experiment [2] the target is T2, mouse RNase H2 subunit A (Rnaseh2a), wild type (mouse) (UniProt Q9CWY8).
T2 sequence: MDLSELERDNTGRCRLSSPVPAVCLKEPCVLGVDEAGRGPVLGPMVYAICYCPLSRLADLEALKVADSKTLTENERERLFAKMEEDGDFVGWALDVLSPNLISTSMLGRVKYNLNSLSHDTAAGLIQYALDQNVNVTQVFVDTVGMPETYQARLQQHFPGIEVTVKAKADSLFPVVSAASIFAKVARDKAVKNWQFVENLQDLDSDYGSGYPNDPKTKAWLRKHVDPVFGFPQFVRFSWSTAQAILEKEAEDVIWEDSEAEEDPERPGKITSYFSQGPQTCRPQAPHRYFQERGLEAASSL
The experiment is described as above.

In experiment [3] the target is T3, mouse RNase H2 subunit A with the RED substitutions (P40D and Y211A) (mouse) (UniProt Q9CWY8).
T3 sequence: T2 sequence with P40D, Y211A
Kind of experiment: co-purification of co-expressed subunits, SDS-PAGE; RNase H2^RED expressed in E. coli, all three subunits His-tagged, purified to near homogeneity; bands seen by SDS-PAGE (Figure S1A); both purified.

B1: mouse RNase H2 subunit C (Rnaseh2c) (protein, UniProt Q9CQ18 1-166)
chain: MKNPEEAADGKQRIHLRPGSLRGAAPAKLHLLPCDVLVSRPAPVDRFFTPAVRHDADGLQASFRGRGLRGEEVAVPPGFAGFVMVTEEKGEGLIGKLNFSGDAEDKADEAQEPLERDFDRLIGATGSFSHFTLWGLETVPGPDAKVHRALGWPSLAAAIHAQVPED
Take B1: the binding result in experiment [1], in experiment [2] and in experiment [3] was “binds” throughout.

B2: mouse RNase H2 subunit B (Rnaseh2b) (protein, UniProt Q80ZV0 1-308)
chain: T1 sequence
As for B2, the binding entry in experiment [2] and in experiment [3] was “binds” each time.
